Data from the supplement of paper PMC6411743.
± gives the standard deviation of the averaged measurements. This is a selection; strong and weak results do not stand in their true shares.

The chains behind the UniProt entries cited, without tags or fusion partners. Where a name states a change or a piece, a line headed by the entry shows the natural chain unless it says otherwise.
UniProt Q14571, whole entry: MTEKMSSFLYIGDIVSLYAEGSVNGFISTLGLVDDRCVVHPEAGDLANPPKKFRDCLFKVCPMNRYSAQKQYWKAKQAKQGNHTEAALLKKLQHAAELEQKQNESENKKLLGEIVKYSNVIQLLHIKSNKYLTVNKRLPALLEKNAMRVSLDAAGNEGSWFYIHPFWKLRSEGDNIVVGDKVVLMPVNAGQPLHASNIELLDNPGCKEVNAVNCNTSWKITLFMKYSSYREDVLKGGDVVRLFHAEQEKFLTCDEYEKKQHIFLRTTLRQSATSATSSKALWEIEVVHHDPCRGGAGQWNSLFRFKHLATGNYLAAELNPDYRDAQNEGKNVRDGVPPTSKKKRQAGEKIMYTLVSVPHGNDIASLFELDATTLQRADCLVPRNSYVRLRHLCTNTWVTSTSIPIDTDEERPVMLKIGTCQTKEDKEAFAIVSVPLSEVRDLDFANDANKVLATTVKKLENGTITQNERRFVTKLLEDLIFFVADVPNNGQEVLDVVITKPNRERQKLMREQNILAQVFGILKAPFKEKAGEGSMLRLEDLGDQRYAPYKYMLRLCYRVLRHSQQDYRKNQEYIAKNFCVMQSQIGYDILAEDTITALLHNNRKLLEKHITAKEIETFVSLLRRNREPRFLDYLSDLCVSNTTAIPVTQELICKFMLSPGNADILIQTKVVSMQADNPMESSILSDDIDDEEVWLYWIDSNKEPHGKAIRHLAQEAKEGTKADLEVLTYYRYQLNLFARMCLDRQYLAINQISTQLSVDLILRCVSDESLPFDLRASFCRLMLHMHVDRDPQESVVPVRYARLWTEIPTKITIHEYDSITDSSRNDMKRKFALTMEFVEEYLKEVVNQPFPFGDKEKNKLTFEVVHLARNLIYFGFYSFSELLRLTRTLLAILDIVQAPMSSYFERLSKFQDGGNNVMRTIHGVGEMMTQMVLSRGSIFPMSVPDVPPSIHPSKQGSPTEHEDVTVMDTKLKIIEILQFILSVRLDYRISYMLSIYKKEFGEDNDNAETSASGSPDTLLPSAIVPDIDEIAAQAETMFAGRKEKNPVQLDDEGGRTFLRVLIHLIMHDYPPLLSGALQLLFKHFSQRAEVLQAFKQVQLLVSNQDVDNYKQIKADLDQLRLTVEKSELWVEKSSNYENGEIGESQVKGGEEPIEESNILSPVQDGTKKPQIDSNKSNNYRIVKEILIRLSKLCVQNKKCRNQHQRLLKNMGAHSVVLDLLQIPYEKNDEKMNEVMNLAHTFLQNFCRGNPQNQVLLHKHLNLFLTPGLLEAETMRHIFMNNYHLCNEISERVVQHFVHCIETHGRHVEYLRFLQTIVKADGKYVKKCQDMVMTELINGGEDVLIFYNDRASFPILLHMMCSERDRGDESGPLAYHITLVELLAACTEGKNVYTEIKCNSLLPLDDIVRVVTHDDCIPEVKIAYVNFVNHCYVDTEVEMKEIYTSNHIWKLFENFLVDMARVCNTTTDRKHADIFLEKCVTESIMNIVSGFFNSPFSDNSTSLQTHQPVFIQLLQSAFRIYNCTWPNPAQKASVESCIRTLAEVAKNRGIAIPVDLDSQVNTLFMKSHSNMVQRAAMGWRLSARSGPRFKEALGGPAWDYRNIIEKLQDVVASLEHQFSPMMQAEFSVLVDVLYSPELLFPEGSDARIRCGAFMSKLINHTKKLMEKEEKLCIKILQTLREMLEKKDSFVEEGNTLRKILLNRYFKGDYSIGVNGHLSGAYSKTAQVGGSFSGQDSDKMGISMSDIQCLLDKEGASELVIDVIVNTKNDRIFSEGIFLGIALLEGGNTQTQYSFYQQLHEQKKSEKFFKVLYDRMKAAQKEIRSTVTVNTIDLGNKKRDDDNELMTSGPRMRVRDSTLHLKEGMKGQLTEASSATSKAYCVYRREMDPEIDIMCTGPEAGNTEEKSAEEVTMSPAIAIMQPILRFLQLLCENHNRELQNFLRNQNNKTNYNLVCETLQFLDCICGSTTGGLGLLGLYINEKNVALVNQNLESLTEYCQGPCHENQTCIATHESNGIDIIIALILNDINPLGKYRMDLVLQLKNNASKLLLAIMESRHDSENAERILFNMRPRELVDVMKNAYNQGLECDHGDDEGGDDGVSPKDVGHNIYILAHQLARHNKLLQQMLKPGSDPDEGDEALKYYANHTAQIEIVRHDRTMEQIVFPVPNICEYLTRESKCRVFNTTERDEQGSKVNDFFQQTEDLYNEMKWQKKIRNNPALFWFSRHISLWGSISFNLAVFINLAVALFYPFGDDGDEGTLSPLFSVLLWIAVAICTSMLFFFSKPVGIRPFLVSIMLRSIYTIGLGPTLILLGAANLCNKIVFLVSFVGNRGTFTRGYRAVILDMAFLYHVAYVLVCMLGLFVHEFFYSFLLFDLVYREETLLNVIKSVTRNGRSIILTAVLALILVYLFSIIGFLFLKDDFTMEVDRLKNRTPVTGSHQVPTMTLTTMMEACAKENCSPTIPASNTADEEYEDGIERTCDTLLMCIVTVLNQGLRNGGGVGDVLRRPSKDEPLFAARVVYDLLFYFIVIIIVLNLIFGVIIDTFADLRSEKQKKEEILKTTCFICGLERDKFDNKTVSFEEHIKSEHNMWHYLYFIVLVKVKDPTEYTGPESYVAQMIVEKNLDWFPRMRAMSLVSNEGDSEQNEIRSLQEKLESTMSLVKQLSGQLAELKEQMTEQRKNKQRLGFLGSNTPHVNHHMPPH
UniProt Q13472: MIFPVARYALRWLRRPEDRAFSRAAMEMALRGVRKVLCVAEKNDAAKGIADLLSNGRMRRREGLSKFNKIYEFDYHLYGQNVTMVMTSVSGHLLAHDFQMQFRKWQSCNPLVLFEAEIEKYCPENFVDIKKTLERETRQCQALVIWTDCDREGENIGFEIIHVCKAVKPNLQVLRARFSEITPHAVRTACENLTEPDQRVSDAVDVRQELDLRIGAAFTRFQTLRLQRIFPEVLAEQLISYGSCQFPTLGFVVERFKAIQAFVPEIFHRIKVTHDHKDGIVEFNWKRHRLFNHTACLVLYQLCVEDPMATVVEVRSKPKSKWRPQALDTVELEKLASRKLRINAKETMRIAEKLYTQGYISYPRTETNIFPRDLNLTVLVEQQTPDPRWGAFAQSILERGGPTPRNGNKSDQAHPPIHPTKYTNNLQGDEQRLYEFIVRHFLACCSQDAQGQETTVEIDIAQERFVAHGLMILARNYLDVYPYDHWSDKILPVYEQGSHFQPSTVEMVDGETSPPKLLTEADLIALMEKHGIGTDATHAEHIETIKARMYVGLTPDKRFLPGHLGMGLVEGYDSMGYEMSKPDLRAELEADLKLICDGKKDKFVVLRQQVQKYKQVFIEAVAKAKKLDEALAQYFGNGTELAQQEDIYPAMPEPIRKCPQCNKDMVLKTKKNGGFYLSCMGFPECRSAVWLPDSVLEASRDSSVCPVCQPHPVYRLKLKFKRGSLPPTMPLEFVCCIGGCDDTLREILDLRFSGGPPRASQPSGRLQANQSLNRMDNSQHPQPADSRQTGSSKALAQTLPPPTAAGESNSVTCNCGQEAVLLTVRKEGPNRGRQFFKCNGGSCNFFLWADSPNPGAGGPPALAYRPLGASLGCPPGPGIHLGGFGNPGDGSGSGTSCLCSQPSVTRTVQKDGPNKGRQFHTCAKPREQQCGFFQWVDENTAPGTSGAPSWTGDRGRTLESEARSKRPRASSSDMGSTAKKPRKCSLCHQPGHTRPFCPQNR
UniProt Q14149: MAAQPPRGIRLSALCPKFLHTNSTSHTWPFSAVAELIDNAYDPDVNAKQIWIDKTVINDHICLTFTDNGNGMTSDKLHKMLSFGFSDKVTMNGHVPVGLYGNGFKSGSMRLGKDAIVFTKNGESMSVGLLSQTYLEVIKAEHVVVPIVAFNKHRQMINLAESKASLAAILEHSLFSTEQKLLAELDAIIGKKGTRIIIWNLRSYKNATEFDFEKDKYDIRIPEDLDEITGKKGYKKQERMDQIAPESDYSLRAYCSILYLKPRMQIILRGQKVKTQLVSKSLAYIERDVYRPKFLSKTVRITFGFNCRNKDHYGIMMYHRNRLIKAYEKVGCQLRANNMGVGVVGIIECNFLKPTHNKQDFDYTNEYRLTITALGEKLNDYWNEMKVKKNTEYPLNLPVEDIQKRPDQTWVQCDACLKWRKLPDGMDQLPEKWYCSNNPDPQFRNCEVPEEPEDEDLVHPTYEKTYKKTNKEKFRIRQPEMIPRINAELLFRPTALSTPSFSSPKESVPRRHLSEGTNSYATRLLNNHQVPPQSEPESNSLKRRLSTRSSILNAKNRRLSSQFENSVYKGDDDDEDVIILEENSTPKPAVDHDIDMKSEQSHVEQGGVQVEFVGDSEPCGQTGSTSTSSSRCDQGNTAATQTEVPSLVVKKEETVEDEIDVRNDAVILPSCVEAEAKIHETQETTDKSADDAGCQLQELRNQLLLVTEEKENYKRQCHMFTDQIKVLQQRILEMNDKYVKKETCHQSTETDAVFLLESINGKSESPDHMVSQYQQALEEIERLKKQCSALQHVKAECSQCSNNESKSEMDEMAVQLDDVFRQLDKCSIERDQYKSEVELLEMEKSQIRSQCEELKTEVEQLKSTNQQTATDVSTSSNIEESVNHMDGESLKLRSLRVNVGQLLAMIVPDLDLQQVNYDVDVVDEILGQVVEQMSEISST
UniProt Q14157: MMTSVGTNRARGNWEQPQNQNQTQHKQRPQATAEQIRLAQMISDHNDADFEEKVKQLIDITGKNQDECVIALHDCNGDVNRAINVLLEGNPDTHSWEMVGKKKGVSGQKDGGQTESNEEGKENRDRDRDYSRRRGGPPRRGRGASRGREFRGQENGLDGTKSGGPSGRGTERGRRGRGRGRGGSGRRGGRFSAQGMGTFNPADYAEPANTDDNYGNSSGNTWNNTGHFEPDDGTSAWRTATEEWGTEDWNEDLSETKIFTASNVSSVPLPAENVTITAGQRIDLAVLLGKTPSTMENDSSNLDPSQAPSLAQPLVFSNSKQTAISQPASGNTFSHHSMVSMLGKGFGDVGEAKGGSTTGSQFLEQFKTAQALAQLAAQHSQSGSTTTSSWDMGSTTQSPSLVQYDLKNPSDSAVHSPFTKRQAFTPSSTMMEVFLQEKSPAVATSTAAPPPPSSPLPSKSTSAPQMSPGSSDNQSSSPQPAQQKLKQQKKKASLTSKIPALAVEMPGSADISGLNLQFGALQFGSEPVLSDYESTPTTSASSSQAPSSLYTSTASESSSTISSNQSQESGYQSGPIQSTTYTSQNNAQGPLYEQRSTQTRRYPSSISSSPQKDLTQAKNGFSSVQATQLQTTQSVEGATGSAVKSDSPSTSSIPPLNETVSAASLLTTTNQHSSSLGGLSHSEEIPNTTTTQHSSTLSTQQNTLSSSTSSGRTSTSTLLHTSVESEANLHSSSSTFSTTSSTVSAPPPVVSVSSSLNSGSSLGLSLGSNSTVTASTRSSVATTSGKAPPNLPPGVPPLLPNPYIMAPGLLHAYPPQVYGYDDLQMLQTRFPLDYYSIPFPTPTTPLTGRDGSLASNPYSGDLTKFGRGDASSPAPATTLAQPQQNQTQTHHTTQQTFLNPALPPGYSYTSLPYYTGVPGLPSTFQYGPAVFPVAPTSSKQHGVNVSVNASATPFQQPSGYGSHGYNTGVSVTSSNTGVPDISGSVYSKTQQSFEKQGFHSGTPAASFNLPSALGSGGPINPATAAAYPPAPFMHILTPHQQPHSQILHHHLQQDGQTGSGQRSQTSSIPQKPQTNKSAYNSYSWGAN
UniProt Q13164: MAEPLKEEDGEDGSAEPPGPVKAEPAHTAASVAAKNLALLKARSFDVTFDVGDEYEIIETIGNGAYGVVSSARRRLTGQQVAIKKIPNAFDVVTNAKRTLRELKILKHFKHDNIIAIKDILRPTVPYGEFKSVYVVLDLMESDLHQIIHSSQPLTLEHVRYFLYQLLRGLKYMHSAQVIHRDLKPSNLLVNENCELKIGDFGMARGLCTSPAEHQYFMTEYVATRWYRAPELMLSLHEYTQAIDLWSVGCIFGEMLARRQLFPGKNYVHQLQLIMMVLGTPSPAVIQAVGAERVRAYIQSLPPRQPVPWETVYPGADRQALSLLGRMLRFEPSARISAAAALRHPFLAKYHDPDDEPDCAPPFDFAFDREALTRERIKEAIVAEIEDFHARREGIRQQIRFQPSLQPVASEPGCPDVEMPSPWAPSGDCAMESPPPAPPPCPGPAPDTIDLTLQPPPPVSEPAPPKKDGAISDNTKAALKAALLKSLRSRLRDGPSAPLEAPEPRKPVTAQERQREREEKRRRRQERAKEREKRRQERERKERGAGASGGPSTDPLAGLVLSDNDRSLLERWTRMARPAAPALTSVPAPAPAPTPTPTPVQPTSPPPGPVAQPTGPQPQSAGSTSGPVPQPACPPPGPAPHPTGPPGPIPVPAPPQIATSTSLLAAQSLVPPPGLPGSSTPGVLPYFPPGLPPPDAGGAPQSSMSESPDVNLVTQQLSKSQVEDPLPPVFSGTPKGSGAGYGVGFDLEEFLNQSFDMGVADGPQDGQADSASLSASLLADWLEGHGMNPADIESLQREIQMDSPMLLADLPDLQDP

These targets were tested with Nc1ncnc2c1ncn2[C@@H]1O[C@H](COP(=O)(O)OP(=O)(O)NP(=O)(O)O)[C@@H](O)[C@H]1O [adenylyl imidodiphosphate] (assay: NP40-soluble protein abundance relative to vehicle (solubility fold change) (ratio); higher = more soluble protein in presence of AMP-PNP). Settings: concentration: 6mM.
How it was run: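 Each value is a fold change relative to the detergent-processed vehicle, calculated per replicate from vsn-normalised intensities. Jurkat crude lysate received eight concentrations (0.1 to 10 mM) for 10 min at room temperature and 3 min at 37 °C, then was solubilised in 0.8% NP40 with benzonase (60 min, 4 °C). The ultracentrifuged supernatant was TMT-labelled and run by LC-MS/MS in three independent experiments.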

Target	NP40-soluble protein abundance
ITPR2 (UniProt Q14571)	0.931 ± 0.093
MGAT5 (UniProt Q09328)	0.982 ± 0.025
UniProt Q14CX7	1.04 ± 0.053
LASP1 (UniProt Q14847)	1.06 ± 0.035
KEAP1 (UniProt Q14145)	0.989 ± 0.02
UniProt Q14CB8 and related entries	1.03 ± 0.015
UniProt Q13472 and related entries	1.01 ± 0.036
IFIT5 (UniProt Q13325)	0.995 ± 0.056
ROCK1 (UniProt Q13464)	0.992 ± 0.042
USP4 (UniProt Q13107)	0.97 ± 0.042
FAM50A (UniProt Q14320)	1.03 ± 0.06
EIF4EBP1 (UniProt Q13541)	0.9563 ± 0.0018
NFX1 (UniProt Q12986)	1.07 ± 0.031
UniProt Q13428-3|Q13428-7|E7ETY2 and related entries	1.25 ± 0.12
GOLGA3 (UniProt Q08378)	0.983 ± 0.068
CHAF1B (UniProt Q13112)	1.01 ± 0.017
UniProt Q12904	0.99 ± 0.15
UniProt Q13561 and related entries	0.947 ± 0.072

Target	NP40-soluble protein abundance
UniProt Q13191 and related entries	1.02 ± 0.031
UniProt Q13459 and related entries	1.02 ± 0.092
MORC3 (UniProt Q14149)	0.997 ± 0.035
PDCL (UniProt Q13371)	0.932 ± 0.062
UniProt Q15013 and related entries	0.993 ± 0.033
UniProt Q14157 and related entries	1.11 ± 0.033
GAMT (UniProt Q14353)	1 ± 0.03
WTAP (UniProt Q15007)	1.01 ± 0.052
IQGAP2 (UniProt Q13576)	0.944 ± 0.029
UniProt Q13164	0.993 ± 0.019
ITK (UniProt Q08881)	0.802 ± 0.063
UniProt Q14161 and related entries	0.985 ± 0.017
GRAP (UniProt Q13588)	0.947 ± 0.018
UniProt Q12888 and related entries	0.976 ± 0.035
PRDX4 (UniProt Q13162)	0.9013 ± 0.0025
UniProt Q15084 and related entries	0.951 ± 0.032
TMEM115 (UniProt Q12893)	0.986 ± 0.025
UniProt Q13163 and related entries	0.958 ± 0.049

Same assay, conditions: concentration: 8mM

Target	NP40-soluble protein abundance
ITPR2 (UniProt Q14571)	0.954 ± 0.12
MGAT5 (UniProt Q09328)	0.953 ± 0.036
UniProt Q14CX7	1.06 ± 0.041
LASP1 (UniProt Q14847)	1.05 ± 0.058
KEAP1 (UniProt Q14145)	1 ± 0.017
UniProt Q14CB8 and related entries	0.996 ± 0.027
UniProt Q13472 and related entries	0.999 ± 0.019
IFIT5 (UniProt Q13325)	1.01 ± 0.071
ROCK1 (UniProt Q13464)	0.961 ± 0.022
USP4 (UniProt Q13107)	0.975 ± 0.039
FAM50A (UniProt Q14320)	0.983 ± 0.034
EIF4EBP1 (UniProt Q13541)	0.961 ± 0.059
NFX1 (UniProt Q12986)	1.1 ± 0.046
UniProt Q13428-3|Q13428-7|E7ETY2 and related entries	1.22 ± 0.06
GOLGA3 (UniProt Q08378)	0.954 ± 0.043
CHAF1B (UniProt Q13112)	1 ± 0.028
UniProt Q12904	0.961 ± 0.14
UniProt Q13561 and related entries	0.92 ± 0.06

Target	NP40-soluble protein abundance
UniProt Q13191 and related entries	0.98 ± 0.023
UniProt Q13459 and related entries	1.02 ± 0.083
MORC3 (UniProt Q14149)	0.985 ± 0.024
PDCL (UniProt Q13371)	0.938 ± 0.083
UniProt Q15013 and related entries	0.996 ± 0.019
UniProt Q14157 and related entries	1.08 ± 0.013
GAMT (UniProt Q14353)	1.005 ± 0.01
WTAP (UniProt Q15007)	0.994 ± 0.066
IQGAP2 (UniProt Q13576)	0.926 ± 0.039
UniProt Q13164	1 ± 0.016
ITK (UniProt Q08881)	0.79 ± 0.072
UniProt Q14161 and related entries	0.951 ± 0.017
GRAP (UniProt Q13588)	0.987 ± 0.037
UniProt Q12888 and related entries	0.942 ± 0.029
PRDX4 (UniProt Q13162)	0.914 ± 0.027
UniProt Q15084 and related entries	0.92 ± 0.022
TMEM115 (UniProt Q12893)	0.982 ± 0.04
UniProt Q13163 and related entries	0.933 ± 0.019

Same assay, conditions: concentration: 10mM

Target	NP40-soluble protein abundance
ITPR2 (UniProt Q14571)	0.966 ± 0.15
MGAT5 (UniProt Q09328)	1.01 ± 0.041
UniProt Q14CX7	1.07 ± 0.057
LASP1 (UniProt Q14847)	1.05 ± 0.057
KEAP1 (UniProt Q14145)	0.95 ± 0.017
UniProt Q14CB8 and related entries	0.99 ± 0.044
UniProt Q13472 and related entries	1.01 ± 0.076
IFIT5 (UniProt Q13325)	0.995 ± 0.044
ROCK1 (UniProt Q13464)	1 ± 0.045
USP4 (UniProt Q13107)	0.942 ± 0.038
FAM50A (UniProt Q14320)	0.998 ± 0.093
EIF4EBP1 (UniProt Q13541)	0.96 ± 0.047
NFX1 (UniProt Q12986)	1.13 ± 0.044
UniProt Q13428-3|Q13428-7|E7ETY2 and related entries	1.28 ± 0.049
GOLGA3 (UniProt Q08378)	0.989 ± 0.043
CHAF1B (UniProt Q13112)	1.01 ± 0.011
UniProt Q12904	0.971 ± 0.15
UniProt Q13561 and related entries	0.925 ± 0.06

Target	NP40-soluble protein abundance
UniProt Q13191 and related entries	1 ± 0.036
UniProt Q13459 and related entries	1.03 ± 0.12
MORC3 (UniProt Q14149)	0.972 ± 0.029
PDCL (UniProt Q13371)	0.928 ± 0.082
UniProt Q15013 and related entries	1.01 ± 0.022
UniProt Q14157 and related entries	1.13 ± 0.028
GAMT (UniProt Q14353)	1.01 ± 0.037
WTAP (UniProt Q15007)	1 ± 0.022
IQGAP2 (UniProt Q13576)	0.932 ± 0.038
UniProt Q13164	1.01 ± 0.045
ITK (UniProt Q08881)	0.754 ± 0.05
UniProt Q14161 and related entries	0.9698 ± 0.0089
GRAP (UniProt Q13588)	0.963 ± 0.038
UniProt Q12888 and related entries	0.967 ± 0.056
PRDX4 (UniProt Q13162)	0.889 ± 0.012
UniProt Q15084 and related entries	0.94 ± 0.047
TMEM115 (UniProt Q12893)	0.962 ± 0.049
UniProt Q13163 and related entries	0.941 ± 0.022
